The target of test [1] is HIS-tagged human collagen XIII (transiently expressed on 293T cells) (human) (UniProt Q5TAT6). Nature of the test: flow cytometry on 293T cells transiently transfected with HIS-tagged collagens.
Test [2] shares this target. Nature of the test: flow cytometry on transient transfectants. (A flow cytometer gives signals particle by particle.)
The target is the same in test [3]. Nature of the test: flow cytometry on transiently transfected 293T cells (hLAIR-1-IgG shown in FIG. 3B).
For test [4], the target named is collagen III (purified, Sigma; acid-soluble human collagen type III in BIAcore) (human) (UniProt P02461). Nature of the test: blocking of adhesion of hLAIR-1 K562 cells to plate-bound collagen III by supernatant with wild-type LAIR-2.
The target is the same in test [5]. Nature of the test: blocking assay: coated collagen III pre-incubated with concentrated supernatant, blocked partner hLAIR-1 on K562 cells.

Chains of the proteins cited; added tags and fusions are not shown. Residues count along the entry.
UniProt P02461, residues 154-1221: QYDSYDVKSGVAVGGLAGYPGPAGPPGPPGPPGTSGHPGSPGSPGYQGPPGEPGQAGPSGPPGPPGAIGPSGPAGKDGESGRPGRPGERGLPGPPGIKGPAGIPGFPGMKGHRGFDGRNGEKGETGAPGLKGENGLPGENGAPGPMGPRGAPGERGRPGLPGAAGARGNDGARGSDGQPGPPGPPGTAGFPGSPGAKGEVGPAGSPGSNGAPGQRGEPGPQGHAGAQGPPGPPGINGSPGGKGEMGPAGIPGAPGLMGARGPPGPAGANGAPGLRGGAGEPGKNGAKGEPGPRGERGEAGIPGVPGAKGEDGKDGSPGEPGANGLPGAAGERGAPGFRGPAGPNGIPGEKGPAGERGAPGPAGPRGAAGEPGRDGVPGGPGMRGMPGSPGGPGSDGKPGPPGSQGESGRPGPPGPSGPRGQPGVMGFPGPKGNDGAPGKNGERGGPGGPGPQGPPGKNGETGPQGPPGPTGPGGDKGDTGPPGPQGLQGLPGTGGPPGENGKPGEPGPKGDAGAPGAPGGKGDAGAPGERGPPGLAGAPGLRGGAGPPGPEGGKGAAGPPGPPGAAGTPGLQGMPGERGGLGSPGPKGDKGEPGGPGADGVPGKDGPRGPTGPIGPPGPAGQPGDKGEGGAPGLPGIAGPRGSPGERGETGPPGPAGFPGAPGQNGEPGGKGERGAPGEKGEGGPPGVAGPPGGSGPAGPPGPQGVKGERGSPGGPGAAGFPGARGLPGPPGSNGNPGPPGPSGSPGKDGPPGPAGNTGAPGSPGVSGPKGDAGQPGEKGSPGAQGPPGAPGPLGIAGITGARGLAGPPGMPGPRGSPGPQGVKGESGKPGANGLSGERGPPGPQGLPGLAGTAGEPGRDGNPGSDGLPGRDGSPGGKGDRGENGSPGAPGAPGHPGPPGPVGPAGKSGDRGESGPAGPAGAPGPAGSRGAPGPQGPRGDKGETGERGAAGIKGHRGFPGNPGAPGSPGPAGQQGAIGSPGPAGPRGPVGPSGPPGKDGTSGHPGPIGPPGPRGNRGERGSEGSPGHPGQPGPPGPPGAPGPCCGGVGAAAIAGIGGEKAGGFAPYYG

No constants are given. Whether binding was seen depends on the method and setting. Some binding calls cover weakened binding; strength is not graded here. For part of these data: Where a sequence is shown, tags or fusion partners need not be part of it.

B1: mLAIR-1-IgG (mouse LAIR-1 fused to the Fc region of human IgG1) (Fc fusion, UniProt Q8BG84 22-144, looked up, not shown: a dimerising Fc or GST)
chain: QEGSLPDITIFPNSSLMISQGTFVTVVCSYSDKHDLYNMVRLEKDGSTFMEKSTEPYKTEDEFEIGPVNETITGHYSCIYSKGITWSERSKTLELKVIKENVIQTPAPGPTSDTSWLKTYSIY
As to B1, the binding result in test [1] is reported as “binds”.

B2: hLAIR-1-IgG (extracellular domain of human LAIR-1 fused to the Fc region of human IgG1) (Fc fusion, UniProt Q6GTX8 22-165, looked up, not shown: a dimerising Fc or GST)
chain: QEEDLPRPSISAEPGTVIPLGSHVTFVCRGPVGVQTFRLERDSRSTYNDTEDVSQASPSESEARFRIDSVREGNAGLYRCIYYKPPKWSEQSDYLELLVKESSGGPDSPDTEPGSSAGPTQRPSDNSHNEHAPASQGLKAEHLY
B2: the binding result in test [2] and in test [3] was “binds” throughout.

B3: rLAIR-1-IgG (rat LAIR-1 fused to the Fc region of human IgG1) (Fc fusion, UniProt P0C1X9 22-143, looked up, not shown: a dimerising Fc or GST)
chain: QEESLSDFTICAEPGPVIPQGNFITIVCSTSGEYDTVRLEKEGSTFMEKKTEPHGKQHRFRIGPVNETITGYYNCIFEKNYVWSQRSNDLQLKVIKENVTQGLAPGPSMTSDTSWLKTYSIH
On to B3, for which the binding result in test [1] is recorded as “binds”.

B4: LAIR-2 (wild-type, secreted/soluble protein) (receptor, human, UniProt Q6ISS4-2 22-135, looked up)
chain: QEGALPRPSISAEPGTVISPGSHVTFMCRGPVGVQTFRLEREDRAKYKDSYNVFRLGPSESEARFHIDSVSEGNAGLYRCLYYKPPGWSEHSDFLELLVKGTVPGTEASGFDAP
In the case of B4, the binding entry in test [4] and in test [5] was “binds” throughout.
